PubChem BioAssay AID1224830 | NIAID | 2016
This is a random part of about 18,000 deposited reagents. Over the whole deposit, about 2,900 (16%) got an active call. 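Calls are made per well; low scores hint the gene aids the LPS response, high scores that it dampens it.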 Repeated entries: four replicate wells of each siRNA pool.

Aim: 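Host factors that control LPS-induced TNF expression in human macrophages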 (primary screen)
System: human THP-1 monocytic leukaemia cells, TNF dual-luciferase reporter clone, PMA-differentiated to macrophage-like cells
Knock-down reagent: siRNA pool against human genes, 50 nM
Duration: LPS for 4 h, given about 3 days after siRNA transfection
Conditions: bacterial LPS (TLR4 ligand), 10 ng/ml
Measured: 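Ratio of firefly to renilla light, scaled to the plate median and expressed as a robust z-score per replicate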
Reading the numbers: TNF reporter robust z-score: higher = stronger TNF reporter response to LPS
Rule for the call: 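a well is active when its z-score exceeds 2.8 or falls below -1.5; control wells carry no call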

MTHFS (GeneID 10588) gave TNF reporter robust z-score -0.31; inactive.
After knock-down of MTHFS (GeneID 10588) the results were TNF reporter robust z-score 1.62; inactive.
Silencing of MTHFS (GeneID 10588) came out at: TNF reporter robust z-score 0.43; inactive.
After knock-down of MTHFS (GeneID 10588) the results were TNF reporter robust z-score 0.56; inactive.
EDAR (GeneID 10913) showed TNF reporter robust z-score -0.58; inactive.
With knock-down of EDAR (GeneID 10913), the screen gave TNF reporter robust z-score -0.47; inactive.
After knock-down of EDAR (GeneID 10913), the record shows TNF reporter robust z-score -1.2; inactive.
With knock-down of EDAR (GeneID 10913), the record shows TNF reporter robust z-score -0.8; inactive.
Depletion of DRC5 (GeneID 202500) came out at: TNF reporter robust z-score -1.32; inactive.
With knock-down of DRC5 (GeneID 202500) the results were TNF reporter robust z-score 0.42; inactive.
Silencing of DRC5 (GeneID 202500) resulted in: TNF reporter robust z-score 0.48; inactive.
DRC5 (GeneID 202500) showed TNF reporter robust z-score 0.34; inactive.
Depletion of GUCY2D (GeneID 3000) came out at: TNF reporter robust z-score -0.42; inactive.
GUCY2D (GeneID 3000) scored TNF reporter robust z-score -1.33; inactive.
GUCY2D (GeneID 3000) scored TNF reporter robust z-score -0.41; inactive.
With knock-down of GUCY2D (GeneID 3000), the screen gave TNF reporter robust z-score -0.8; inactive.
After knock-down of ZNF491 (GeneID 126069), the screen gave TNF reporter robust z-score 1.39; inactive.
With knock-down of ZNF491 (GeneID 126069), the screen gave TNF reporter robust z-score -0.41; inactive.
Against ZNF491 (GeneID 126069) the deposit lists TNF reporter robust z-score -0.77; inactive.
ZNF491 (GeneID 126069) scored TNF reporter robust z-score -0.82; inactive.
After knock-down of FER (GeneID 2241), the record shows TNF reporter robust z-score -0.47; inactive.
After knock-down of FER (GeneID 2241) the results were TNF reporter robust z-score -0.54; inactive.
Knock-down of FER (GeneID 2241) came out at: TNF reporter robust z-score 0.37; inactive.
With knock-down of FER (GeneID 2241) the results were TNF reporter robust z-score -0.19; inactive.
Against DNAJC22 (GeneID 79962), the values are TNF reporter robust z-score -0.36; inactive.
With knock-down of DNAJC22 (GeneID 79962), the record shows TNF reporter robust z-score -0.49; inactive.
DNAJC22 (GeneID 79962) gave TNF reporter robust z-score 0.15; inactive.
After knock-down of DNAJC22 (GeneID 79962), the screen gave TNF reporter robust z-score -0.65; inactive.
For NLRP6 (GeneID 171389) the deposit lists TNF reporter robust z-score 1.48; inactive.
NLRP6 (GeneID 171389) showed TNF reporter robust z-score 2.19; inactive.
NLRP6 (GeneID 171389) showed TNF reporter robust z-score 0.68; inactive.
Depletion of NLRP6 (GeneID 171389) resulted in: TNF reporter robust z-score 0.53; inactive.
ITSN1 (GeneID 6453) showed TNF reporter robust z-score -0.12; inactive.
For ITSN1 (GeneID 6453) the deposit lists TNF reporter robust z-score -0.07; inactive.
ITSN1 (GeneID 6453) showed TNF reporter robust z-score 0.63; inactive.
After knock-down of ITSN1 (GeneID 6453), the record shows TNF reporter robust z-score 0.93; inactive.
After knock-down of GALC (GeneID 2581), the record shows TNF reporter robust z-score 0.14; inactive.
GALC (GeneID 2581) scored TNF reporter robust z-score 0.47; inactive.
GALC (GeneID 2581) showed TNF reporter robust z-score 0.84; inactive.
After knock-down of GALC (GeneID 2581) the results were TNF reporter robust z-score 1.27; inactive.
HEMGN (GeneID 55363) showed TNF reporter robust z-score -0.11; inactive.
With knock-down of HEMGN (GeneID 55363), the record shows TNF reporter robust z-score -0.52; inactive.
Against HEMGN (GeneID 55363), the entry reads TNF reporter robust z-score -0.38; inactive.
HEMGN (GeneID 55363) showed TNF reporter robust z-score -0.47; inactive.
Silencing of TOMM40L (GeneID 84134) resulted in: TNF reporter robust z-score -1.27; inactive.
After knock-down of TOMM40L (GeneID 84134) the results were TNF reporter robust z-score -0.92; inactive.
Knock-down of TOMM40L (GeneID 84134) gave: TNF reporter robust z-score -0.86; inactive.
For TOMM40L (GeneID 84134), the entry reads TNF reporter robust z-score -1.13; inactive.
WLS (GeneID 79971) gave TNF reporter robust z-score -0.55; inactive.
After knock-down of WLS (GeneID 79971), the record shows TNF reporter robust z-score 0.05; inactive.
For WLS (GeneID 79971), the values are TNF reporter robust z-score -0.27; inactive.
Depletion of WLS (GeneID 79971) resulted in: TNF reporter robust z-score 0.57; inactive.
Against APMAP (GeneID 57136) the deposit lists TNF reporter robust z-score -0.23; inactive.
For APMAP (GeneID 57136) the deposit lists TNF reporter robust z-score 0.48; inactive.
For APMAP (GeneID 57136), the values are TNF reporter robust z-score -0.07; inactive.
For APMAP (GeneID 57136), the values are TNF reporter robust z-score 0.45; inactive.
Against CBY1 (GeneID 25776), the entry reads TNF reporter robust z-score -0.11; inactive.
For CBY1 (GeneID 25776), the values are TNF reporter robust z-score 0.15; inactive.
After knock-down of CBY1 (GeneID 25776), the record shows TNF reporter robust z-score -0.09; inactive.
With knock-down of CBY1 (GeneID 25776), the record shows TNF reporter robust z-score -0.46; inactive.
